Assay results from patent publication US4753928A, “Process for obtaining sexual products from mammals suitable for natural or artificial fertilization” (INNOFINANCE Altalanos Innovacios Pengintezet, priority 1985, dated 1988).
At least one peptide structure holds a part that was inferred or is arguable (an end, a ring closure or a residue). Where a SMILES comes first, the peptide text is derived from it. [ ]: non-standard residue; d: D form. pGlu = O=C1CC[C@@H](C(=O)O)N1

Tested on: infant female mice
Assay: Inducing super-ovulation in infant female mice
Format: in vivo

CCNC(=O)[C@@H]1CCCN1C(=O)[C@H](CCC(N)=O)NC(=O)[C@H](CC(C)C)NC(=O)[C@@H](Cc1ccccc1)NC(=O)[C@H](Cc1ccc(O)cc1)NC(=O)[C@H](CO)NC(=O)[C@H](Cc1c[nH]c2ccccc12)NC(=O)[C@H](Cc1c[nH]cn1)NC(=O)[C@@H]1CCC(=O)N1 [D-Phe^6, Gln^8, des Gly^10 -GnRH] ([pGlu]HWSY[dF]LQP-NHEt)
Graf-follicles past final maturity in each animal (1 μg daily for three days, then 5 μg 4 h after on third day, 28-day old mice): 45-70
corpora lutea in place of Graf-follicles (similar group treated for 5 days): corpora lutea were formed
